Taken from: PubChem BioAssay AID1671195 (Yale University, 2021)
In all, the deposit lists about 22,000 reagents; below is a random part of them. About 1,510 of all reagents (6.9%) were called active. 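Active includes knockdowns raising or lowering LDL uptake; positive z-scores mean more uptake, negative mean less.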 Unmarked entries are inactive. No sequences are given here.

- Aim: 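Genes whose knockdown alters LDL uptake in liver cancer cells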 (primary screen)
- System: human Huh7 hepatoma cells
- Reagent: siRNA pool against human genes, 18 nM
- Duration: about 2 to 2.5 days of knockdown, then 8 h LDL uptake
- Challenge: DiI-labelled LDL at 30 µg/ml for 8 h, in lipoprotein-deficient serum medium
- Detection: 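Fluorescent LDL signal imaged in cells, scaled to the plate median, robust z-score for each replicate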
- Reading the numbers: robust z-score: higher = more LDL uptake after knockdown
- Rule for the call: 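a gene counts as active if at least two replicate z-scores exceed ±2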

With LARP4B, what was measured?
robust z-score, replicate 1: 3.3 (active); robust z-score, replicate 2: 1.81; robust z-score, replicate 3: 2.44

For ZNF514, how do the results read?
robust z-score, replicate 1: -0.927; robust z-score, replicate 2: -1.31; robust z-score, replicate 3: -0.876

What is on record for LHX9?
robust z-score, replicate 1: -0.369; robust z-score, replicate 2: 0.29; robust z-score, replicate 3: -0.52

What is on record for FRMD5?
robust z-score, replicate 1: 0.84; robust z-score, replicate 2: 0.733; robust z-score, replicate 3: 1.04

Which result is listed for MRAP2?
robust z-score, replicate 1: -0.451; robust z-score, replicate 2: -0.0242; robust z-score, replicate 3: -0.132

What is on record for USP48?
robust z-score, replicate 1: -0.38; robust z-score, replicate 2: -0.502; robust z-score, replicate 3: -0.455

With LOC402221, what does the deposit list?
robust z-score, replicate 1: -1.09; robust z-score, replicate 2: -0.91; robust z-score, replicate 3: -1.19

How did the screen score APBA1?
robust z-score, replicate 1: -1.38; robust z-score, replicate 2: -0.979; robust z-score, replicate 3: -1.07

How did the screen score SV2B?
robust z-score, replicate 1: 0.188; robust z-score, replicate 2: 0.569; robust z-score, replicate 3: 0.401

What is on record for CCPG1?
robust z-score, replicate 1: -0.82; robust z-score, replicate 2: -0.964; robust z-score, replicate 3: -0.977

For TAF9B, what was measured?
robust z-score, replicate 1: -0.658; robust z-score, replicate 2: -0.994; robust z-score, replicate 3: -0.812

For CACNG7, what does the deposit list?
robust z-score, replicate 1: -0.308; robust z-score, replicate 2: -0.705; robust z-score, replicate 3: -0.00144

How did the screen score CYB5D2?
robust z-score, replicate 1: 0.0502; robust z-score, replicate 2: 0.0677; robust z-score, replicate 3: -0.57

Which result is listed for HMGB3P27?
robust z-score, replicate 1: -0.439; robust z-score, replicate 2: -0.15; robust z-score, replicate 3: -0.438

With SRPX, what does the deposit list?
robust z-score, replicate 1: -1.09; robust z-score, replicate 2: -1.09; robust z-score, replicate 3: -2.18

What did the screen give for CARD6?
robust z-score, replicate 1: -0.818; robust z-score, replicate 2: -0.396; robust z-score, replicate 3: -0.779

With DKK4, what was measured?
robust z-score, replicate 1: 0.337; robust z-score, replicate 2: -0.51; robust z-score, replicate 3: 0.165

What is on record for RCCD1?
robust z-score, replicate 1: -0.111; robust z-score, replicate 2: -0.186; robust z-score, replicate 3: -0.0847

With GJA3, what does the deposit list?
robust z-score, replicate 1: 0.43; robust z-score, replicate 2: 0.866; robust z-score, replicate 3: 0.817

How did the screen score PPFIA3?
robust z-score, replicate 1: -0.212; robust z-score, replicate 2: -1.26; robust z-score, replicate 3: -0.241

How did the screen score SBSN?
robust z-score, replicate 1: 0.465; robust z-score, replicate 2: 0.71; robust z-score, replicate 3: 0.429

What is on record for POTEM?
robust z-score, replicate 1: 1.62; robust z-score, replicate 2: 1.85; robust z-score, replicate 3: 2.41

With TTI2, what was measured?
robust z-score, replicate 1: 0.095; robust z-score, replicate 2: -0.11; robust z-score, replicate 3: 0.315

With DMRT3, what does the deposit list?
robust z-score, replicate 1: 0.442; robust z-score, replicate 2: 0.553; robust z-score, replicate 3: 0.333
